In experiment [1] the target is T1, HA-IRHOM2 WT (human) (UniProt Q6PJF5).
T1 sequence: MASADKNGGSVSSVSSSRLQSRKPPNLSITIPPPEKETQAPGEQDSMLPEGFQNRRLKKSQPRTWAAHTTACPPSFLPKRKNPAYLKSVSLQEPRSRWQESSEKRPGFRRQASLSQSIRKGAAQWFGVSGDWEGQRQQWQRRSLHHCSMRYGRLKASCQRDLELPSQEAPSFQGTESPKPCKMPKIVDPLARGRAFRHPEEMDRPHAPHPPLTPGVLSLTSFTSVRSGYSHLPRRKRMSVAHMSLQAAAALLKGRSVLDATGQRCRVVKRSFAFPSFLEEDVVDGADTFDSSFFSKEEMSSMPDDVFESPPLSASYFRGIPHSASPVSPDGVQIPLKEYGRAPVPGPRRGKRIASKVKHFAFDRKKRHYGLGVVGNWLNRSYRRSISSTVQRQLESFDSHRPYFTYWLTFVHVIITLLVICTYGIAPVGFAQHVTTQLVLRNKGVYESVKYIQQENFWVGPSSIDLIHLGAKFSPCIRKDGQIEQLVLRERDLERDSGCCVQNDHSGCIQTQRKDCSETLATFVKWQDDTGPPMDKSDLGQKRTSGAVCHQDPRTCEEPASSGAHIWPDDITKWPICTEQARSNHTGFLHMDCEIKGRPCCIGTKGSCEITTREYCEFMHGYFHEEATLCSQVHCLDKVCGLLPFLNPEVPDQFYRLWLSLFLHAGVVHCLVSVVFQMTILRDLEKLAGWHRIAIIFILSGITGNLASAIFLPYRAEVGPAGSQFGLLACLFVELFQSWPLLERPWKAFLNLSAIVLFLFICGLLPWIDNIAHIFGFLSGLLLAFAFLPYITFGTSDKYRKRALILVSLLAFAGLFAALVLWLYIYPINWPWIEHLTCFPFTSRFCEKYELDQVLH
The experiment can be described thus: co-IP; THLE2 cells transfected with Flag- and HA-tagged IRHOM2 and ZDHHC3 (whole or truncated); blots with anti-HA or anti-Flag.

Experiment [2] concerns the target GST-IRHOM2 (UniProt Q6PJF5). The experiment can be described thus: pull-down; GST pull-down (MagneGST kit): GST fusion from E. coli extract on GST particles 1 h at 4 °C, then His-tagged partner for 5 h; elution and western blot; both purified.
Experiment [3] has as its target GST-ZDHHC3 (UniProt Q9NYG2). Described as above.

No constants are given. Whether binding was seen depends on the method and setting. Binding seen in cells or lysates may run through a third protein. For part of these data: Binding can be weak; no strength is given. Sequences can lack the tags named with a protein.

For the molecule “Flag-ZDHHC3 △PDZ (human) (domain or fragment)”, the binding result in experiment [1] is on record as “no binding”.

B1: His-ZDHHC3 (enzyme, UniProt Q9NYG2 1-299)
chain: MMLIPTHHFRNIERKPEYLQPEKCVPPPYPGPVGTMWFIRDGCGIACAIVTWFLVLYAEFVVLFVMLIPSRDYVYSIINGIVFNLLAFLALASHCRAMLTDPGAVPKGNATKEFIESLQLKPGQVVYKCPKCCSIKPDRAHHCSVCKRCIRKMDHHCPWVNNCVGENNQKYFVLFTMYIALISLHALIMVGFHFLHCFEEDWTKCSSFSPPTTVILLILLCFEGLLFLIFTSVMFGTQVHSICTDETGIEQLKKEERRWAKKTKWMNMKAVFGHPFSLGWASPFATPDQGKADPYQYVV
As to B1, in experiment [2], the binding result is “binds”.

B2: His-IRHOM2 (protein, UniProt Q6PJF5 1-856)
chain: MASADKNGGSVSSVSSSRLQSRKPPNLSITIPPPEKETQAPGEQDSMLPEGFQNRRLKKSQPRTWAAHTTACPPSFLPKRKNPAYLKSVSLQEPRSRWQESSEKRPGFRRQASLSQSIRKGAAQWFGVSGDWEGQRQQWQRRSLHHCSMRYGRLKASCQRDLELPSQEAPSFQGTESPKPCKMPKIVDPLARGRAFRHPEEMDRPHAPHPPLTPGVLSLTSFTSVRSGYSHLPRRKRMSVAHMSLQAAAALLKGRSVLDATGQRCRVVKRSFAFPSFLEEDVVDGADTFDSSFFSKEEMSSMPDDVFESPPLSASYFRGIPHSASPVSPDGVQIPLKEYGRAPVPGPRRGKRIASKVKHFAFDRKKRHYGLGVVGNWLNRSYRRSISSTVQRQLESFDSHRPYFTYWLTFVHVIITLLVICTYGIAPVGFAQHVTTQLVLRNKGVYESVKYIQQENFWVGPSSIDLIHLGAKFSPCIRKDGQIEQLVLRERDLERDSGCCVQNDHSGCIQTQRKDCSETLATFVKWQDDTGPPMDKSDLGQKRTSGAVCHQDPRTCEEPASSGAHIWPDDITKWPICTEQARSNHTGFLHMDCEIKGRPCCIGTKGSCEITTREYCEFMHGYFHEEATLCSQVHCLDKVCGLLPFLNPEVPDQFYRLWLSLFLHAGVVHCLVSVVFQMTILRDLEKLAGWHRIAIIFILSGITGNLASAIFLPYRAEVGPAGSQFGLLACLFVELFQSWPLLERPWKAFLNLSAIVLFLFICGLLPWIDNIAHIFGFLSGLLLAFAFLPYITFGTSDKYRKRALILVSLLAFAGLFAALVLWLYIYPINWPWIEHLTCFPFTSRFCEKYELDQVLH
Regarding B2, in experiment [3], the binding entry is “binds”.

Source of the values: publication PMC10558657.
